Experimental data taken from PubChem BioAssay AID288 (DTP/NCI, 2004).
The list does not hold the whole screen: it gathers tests that were run many times, whatever their T/C, doses with no T/C, and many T/C values between a quarter and a half above the control. Other doses and runs of a compound stand elsewhere. T/C: endpoint of the treated group in % of that of the vehicle group. Schedule codes are those of the source, read here as Q, the interval in days (D) or hours (H), X, the number of doses. Some doses have a count of surviving animals in place of a T/C: the source holds a T/C of zero for them, seemingly a mark for toxic or unscored doses. Some survivor counts are full or nearly so, which does not show that the dose was tolerated: the source hardly ever lists a survival T/C far under the control, and the zero likely stands for such cases as well. Counts of survivors are from the toxicity check (mostly the fifth day) where no day follows; animals may have died later. Where survival is the endpoint, the PubChem record calls one and a half times the control and up active, and a quarter to a half above the control has no call in these data; cut-offs in other NCI protocols can differ.

Tested on: BDF1 mice, M5076 sarcoma s.c., survival/tumor T/C
Assay: NCI In Vivo Anticancer Drug Screen. Data for tumor model Sarcoma M5076 (subcutaneous) in B6D2F1 (BDF1) mice
Experimental: The antitumor activity of compounds was measured in mice bearing transplantable tumors. Survival or tumor size were measured and the results are expressed as the measurement made in the treated group (T) divided by the measurement made in the vehicle treated control group (C). The tumor model used in this assay is Sarcoma M5076 (subcutaneous) in B6D2F1 (BDF1) mice

[1] = T/C endpoint: median survival time, dose: 100.0 mg/kg/injection, schedule: Q01DX009 (ip), vehicle: saline with Tween-80, higher T/C = longer survival
[2] = T/C endpoint: median survival time, dose: 200.0 mg/kg/injection, schedule: Q01DX009 (ip), vehicle: saline with Tween-80, higher T/C = longer survival
[3] = T/C endpoint: median tumor weight (est.), dose: 100.0 mg/kg/injection, schedule: Q01DX009 (ip), vehicle: saline with Tween-80, higher T/C = larger tumour
[4] = T/C endpoint: median tumor weight (est.), dose: 200.0 mg/kg/injection, schedule: Q01DX009 (ip), vehicle: saline with Tween-80, higher T/C = larger tumour

With O=C1C=CC(=O)N1c1ccc(-c2nc3ccccc3o2)cc1 the survivor count (T/C endpoint: median survival time, dose: 50.0 mg/kg/injection, schedule: Q01DX009 (ip), vehicle: saline with Tween-80, higher T/C = longer survival) was 2 of 10 on day 9, the survivor count [1] was 0 of 10 on day 9 and the survivor count [2] was 0 of 10 on day 9. The survivor count (T/C endpoint: median tumor weight (est.), dose: 50.0 mg/kg/injection, schedule: Q01DX009 (ip), vehicle: saline with Tween-80, higher T/C = larger tumour) was 2 of 10 on day 20, the survivor count [3] was 0 of 10 on day 20 and the survivor count [4] was 0 of 10 on day 20.
In the case of O=C1c2ccccc2C(=O)c2c(NCCNCCO)ccc(NCCNCCO)c21, the survivor count (T/C endpoint: median survival time, dose: 36.0 mg/kg/injection, schedule: Q04DX004 (iv), vehicle: saline, higher T/C = longer survival) is reported as 4 of 8, the survivor count (T/C endpoint: median survival time, dose: 60.0 mg/kg/injection, schedule: Q04DX004 (ip), vehicle: saline, higher T/C = longer survival) is reported as 8 of 8 and the survivor count (T/C endpoint: median survival time, dose: 60.0 mg/kg/injection, schedule: Q04DX004 (iv), vehicle: saline, higher T/C = longer survival) is reported as 0 of 8.
For CN(C)/N=N/c1nc[nH]c1C(N)=O, the T/C (T/C endpoint: median survival time, dose: 54.0 mg/kg/injection, schedule: Q04DX006 (ip), vehicle: saline with Tween-80, higher T/C = longer survival) was 129 % of control and the T/C (T/C endpoint: median survival time, dose: 108.0 mg/kg/injection, schedule: Q04DX006 (ip), vehicle: saline with Tween-80, higher T/C = longer survival) was 138 % of control.
NC(CSC(c1ccccc1)(c1ccccc1)c1ccccc1)C(=O)O (stereo not given) was tested, and the survivor count (T/C endpoint: mean tumor weight, dose: 140.0 mg/kg/injection, schedule: Q02DX011 (ip), vehicle: saline, higher T/C = larger tumour) was 0 of 10 on day 22 and the survivor count (T/C endpoint: median tumor weight (est.), dose: 140.0 mg/kg/injection, schedule: Q02DX011 (ip), vehicle: saline, higher T/C = larger tumour) was 0 of 10 on day 22.
In the case of O=C(O)c1c(CS(F)(F)(F)(F)F)cc(=O)oc1CS(F)(F)(F)(F)F, the survivor count [1] is reported as 9 of 10 on day 9, the survivor count [2] is reported as 0 of 10 on day 9 and the T/C (T/C endpoint: median tumor weight (est.), dose: 50.0 mg/kg/injection, schedule: Q01DX009 (ip), vehicle: saline with Tween-80, evaluated on day 20, higher T/C = larger tumour) is reported as 139 % of control. For the same compound, the survivor count [3] was 1 of 10 on day 20 and the survivor count [4] was 0 of 10 on day 20.
In the case of COc1ccc(Cl)[n+]([O-])n1, the survivor count (T/C endpoint: median survival time, dose: 200.0 mg/kg/injection, schedule: Q04DX003 (ip), vehicle: Klucel (hydroxypropylcellulose) (HPC), higher T/C = longer survival) is reported as 0 of 10 on day 63 and the survivor count (T/C endpoint: median survival time, dose: 400.0 mg/kg/injection, schedule: Q04DX003 (ip), vehicle: Klucel (hydroxypropylcellulose) (HPC), higher T/C = longer survival) is reported as 0 of 10 on day 63.
With O=C(O)c1ccc(C(=O)O)c(C(=O)O)c1.[NH-]C1CCCCC1[NH-].[Pt+2] the T/C (T/C endpoint: median survival time, dose: 3.11 mg/kg/injection, schedule: Q04DX005 (ip), vehicle: sodium bicarbonate, higher T/C = longer survival) was 136 % of control, the T/C (T/C endpoint: median survival time, dose: 5.18 mg/kg/injection, schedule: Q04DX005 (ip), vehicle: sodium bicarbonate, higher T/C = longer survival) was 127 % of control and the survivor count (T/C endpoint: median survival time, dose: 24.0 mg/kg/injection, schedule: Q04DX005 (ip), vehicle: sodium bicarbonate, higher T/C = longer survival) was 10 of 10 on day 9. For the same compound, the survivor count (T/C endpoint: median survival time, dose: 40.0 mg/kg/injection, schedule: Q04DX005 (ip), vehicle: sodium bicarbonate, higher T/C = longer survival) was 10 of 10 on day 9, the survivor count (T/C endpoint: median tumor weight (est.), dose: 24.0 mg/kg/injection, schedule: Q04DX005 (ip), vehicle: sodium bicarbonate, higher T/C = larger tumour) was 2 of 10 on day 22 and the survivor count (T/C endpoint: median tumor weight (est.), dose: 40.0 mg/kg/injection, schedule: Q04DX005 (ip), vehicle: sodium bicarbonate, higher T/C = larger tumour) was 0 of 10 on day 22.
In the case of O=CC(NC(=O)N(CCCl)N=O)C(O)C(O)C(O)CO (stereo not given), the survivor count (T/C endpoint: mean tumor weight, dose: 12.0 mg/kg/injection, schedule: Q02DX011 (ip), vehicle: saline, higher T/C = larger tumour) is reported as 6 of 10 on day 22, the T/C (T/C endpoint: median survival time, dose: 14.0 mg/kg/injection, schedule: Q01DX001 (ip), vehicle: saline, evaluated on day 17, higher T/C = longer survival) is reported as 128 % of control and the T/C (T/C endpoint: median survival time, dose: 14.0 mg/kg/injection, schedule: Q01DX001 (ip), vehicle: saline, evaluated on day 61, higher T/C = longer survival) is reported as 127 % of control.
In the case of COC1C(O)C(C)OC(OC2C(Oc3cccc4c(O)c5c(=O)oc6ccc(C)c7c(=O)oc(c34)c5c67)OC(C)C(O)C2O)C1O (stereo not given), the T/C (T/C endpoint: median tumor weight (est.), dose: 25.0 mg/kg/injection, schedule: Q02DX011 (ip), vehicle: Klucel (hydroxypropylcellulose) (HPC), evaluated on day 22, higher T/C = larger tumour) is reported as 130 % of control.
